Data from US10561661B2, “Purine derivative compounds for medical use” (MANROS THERAPEUTICS, priority 2014, dated 2020).

Sequences of proteins named here, by UniProt entry; tags and fusion partners are left off. A change or cut given only in a name is not applied to a line headed by its entry. A line that says so, or that is headed by a name, gives the form on record, which may keep a tag or linker.
UniProt P13569, with tags, fused parts or gaps DEL508-508: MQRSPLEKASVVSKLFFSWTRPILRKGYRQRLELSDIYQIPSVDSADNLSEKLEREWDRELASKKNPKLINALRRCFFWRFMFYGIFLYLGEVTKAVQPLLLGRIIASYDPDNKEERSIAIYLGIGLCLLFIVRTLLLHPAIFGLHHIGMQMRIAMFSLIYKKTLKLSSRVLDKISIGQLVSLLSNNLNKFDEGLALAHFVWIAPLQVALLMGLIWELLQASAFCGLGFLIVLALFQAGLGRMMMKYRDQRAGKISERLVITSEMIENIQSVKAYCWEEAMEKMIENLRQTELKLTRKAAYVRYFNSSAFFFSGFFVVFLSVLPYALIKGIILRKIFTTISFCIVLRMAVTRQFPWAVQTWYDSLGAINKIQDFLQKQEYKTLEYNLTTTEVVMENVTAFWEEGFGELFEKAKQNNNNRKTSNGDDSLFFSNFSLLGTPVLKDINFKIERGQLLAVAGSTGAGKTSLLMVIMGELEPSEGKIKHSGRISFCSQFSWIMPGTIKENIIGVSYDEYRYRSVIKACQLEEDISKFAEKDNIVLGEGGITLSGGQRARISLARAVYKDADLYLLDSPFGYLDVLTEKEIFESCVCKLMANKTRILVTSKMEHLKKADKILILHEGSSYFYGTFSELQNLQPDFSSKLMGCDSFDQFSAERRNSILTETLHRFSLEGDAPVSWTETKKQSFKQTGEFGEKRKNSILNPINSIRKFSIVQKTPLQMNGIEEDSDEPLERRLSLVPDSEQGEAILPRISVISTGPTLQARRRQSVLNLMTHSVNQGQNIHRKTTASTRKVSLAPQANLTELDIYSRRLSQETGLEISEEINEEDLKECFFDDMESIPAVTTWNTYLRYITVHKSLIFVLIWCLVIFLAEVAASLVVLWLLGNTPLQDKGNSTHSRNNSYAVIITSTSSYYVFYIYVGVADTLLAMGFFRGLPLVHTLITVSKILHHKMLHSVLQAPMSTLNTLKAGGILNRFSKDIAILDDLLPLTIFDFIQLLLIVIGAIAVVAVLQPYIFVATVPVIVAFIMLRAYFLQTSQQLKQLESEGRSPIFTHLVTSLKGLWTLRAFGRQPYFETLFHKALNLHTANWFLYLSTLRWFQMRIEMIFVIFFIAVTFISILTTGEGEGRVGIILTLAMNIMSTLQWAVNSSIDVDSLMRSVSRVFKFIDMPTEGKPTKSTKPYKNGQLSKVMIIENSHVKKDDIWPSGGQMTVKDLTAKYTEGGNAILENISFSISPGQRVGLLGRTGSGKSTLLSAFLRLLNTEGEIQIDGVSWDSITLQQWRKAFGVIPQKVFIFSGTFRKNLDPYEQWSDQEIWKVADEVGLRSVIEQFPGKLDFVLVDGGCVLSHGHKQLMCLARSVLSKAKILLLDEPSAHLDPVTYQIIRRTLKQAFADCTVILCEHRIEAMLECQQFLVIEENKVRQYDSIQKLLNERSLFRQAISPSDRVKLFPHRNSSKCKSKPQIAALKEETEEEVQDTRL

Assays:
GSK-3α/β = assay: IC50 towards inhibition of various kinases: GSK-3α/β; assay type: biochemical
Δ508F CFTR = Δ508F CFTR (Homo sapiens, UniProt P13569, DEL508-508); details: WO 2006/042949; cited from earlier work

SMILES: CC[C@H](CO)Nc1nc(NCc2ccccc2)c2ncn(C(C)C)c2n1 [(R)-roscovitine, 2-(R)-(1-ethyl-2-hydroxyethylamino)-6-benzylamino-9-isopropylpurine, reference compound]
- IC50 (GSK-3α/β): 51 µM
- rescue of Δ508F CFTR plasma membrane translocation (Δ508F CFTR): rescue some Δ508F CFTR plasma membrane translocation
